Entries after “also recorded” stand apart in the source; their conditions may differ. Not every detail of the peptide structures is certain; ends, links or a residue may be inferred. For part of these data: At least one structure is not confirmed: it was looked up by name or label, or the drawing left a doubt.
Columns and labels:
[1] = tested on: db/db mice; assay: db/db mouse model of type II diabetes; type: in vivo; conditions: glucose tolerance test in last week of the study
[2] = tested on: lethal endotoxemia induced by 15 mg/kg LPS; assay: Lethal endotoxemia survival study; type: in vivo, mice
[3] = tested on: LPS challenged mice; assay: Mouse LPS challenge (sepsis/inflammation) model, serum TNF-alpha by ELISA; type: in vivo
Protocol: FIGS. 10A and B. FIG. 10A presents exemplary peptides that were used to reduce TNF-alpha levels in mice subjected to an LPS challenge. […] The mice were treated with alanine scanned SP16 peptide. […] Based on this alanine screen, and without wishing to be bound by a theory, it appears that the C- and N-terminal amino acids contribute to the anti-inflammatory effect of the SP16 peptide. […] Groups of 3 animals were injected with 0.2 mg/kg peptide and subjected to LPS challenge. Serum TNF-alpha levels were determined by ELISA. Several peptides provided the same level of protection as 1 mg/kg Dexamethasone.
The ability of peptide drugs was tested to for their potential for the reduction of inflammatory cytokines following treatment with purified bacterial lipopolysaccharide (LPS)—a major component of bacterial cell wall of Gram-negative bacteria. […]
We designed 18 different peptides based on the hAAT sequence (Accession #AAB59371), and had these synthesized using conventional FMOC chemistry. To assess in vivo anti-inflammatory and therapeutic potential, the peptides were tested in a mouse lipopolysaccharide (LPS) challenge model with serum TNFα levels as readout. Using dexamethasone as reference, groups of 3 animals were IP injected with 0.2 mg/kg peptide 2 hours prior to an LPS challenge, and serum TNFα levels determined 30 min after the LPS challenge, by ELISA. […]

## CC[C@H](C)[C@H](NC(=O)[C@H](CCSC)NC(=O)[C@H](CC(C)C)NC(=O)[C@H](Cc1ccccc1)NC(=O)[C@@H](NC(=O)[C@H](Cc1ccccc1)NC(=O)[C@@H]1CCCN1C(=O)[C@H](CCCCN)NC(=O)[C@H](CC(N)=O)NC(=O)[C@H](Cc1ccccc1)NC(=O)[C@H](CCCCN)NC(=O)[C@@H](N)C(C)C)C(C)C)C(=O)N[C@@H](CCC(=O)O)C(=O)N[C@@H](CCC(N)=O)C(=O)N[C@@H](CC(N)=O)C(=O)N[C@H](C(=O)N[C@@H](CCCCN)C(=O)O)[C@@H](C)O [SP16]
[1]
  glucose tolerance: improved
[2]; 0.6 mg/kg SP16 at T=-2, 0 and 0.5 hours, 15 mg/kg LPS at T=0
  Survival at 72 hours: 60%
[2]; 15 mg/kg LPS, groups of 10, monitored to 72 hours
  survival in lethal endotoxemia: increases survival; also recorded: improved survival
[3]; Table B peptides
  anti-inflammatory effect when administered to a mouse model of sepsis (FIG. 10): particularly good anti-inflammatory effect
[3]; compared with Dexamethasone positive control
  TNF-alpha levels in LPS challenged mice, alanine scanned SP16 peptides (FIG. 10B): reduce TNF-alpha levels more than Dexamethasone

## CN(CCOc1ccc(CC2SC(=O)NC2=O)cc1)c1ccccn1 (stereo not drawn) [Rosiglitazone, reference compound]
[1]
  glucose tolerance: better values than the SP16 group

Source: US12291581B2, “Serpin peptides and methods of using the same” (SERPIN PHARMA, LLC, priority 2012, dated 2025)
